For the experiment, the system named is BDF1 mice, P388 leukemia ip, median survival T/C. In words: NCI In Vivo Anticancer Drug Screen. Data for tumor model P388 Leukemia (intraperitoneal) in B6D2F1 (BDF1) mice. The following applies: T/C endpoint: median survival time, higher T/C = longer survival. In a few lines:
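Antitumour effect was judged in vivo: survival in drug-treated mice, normalised to that of vehicle-dosed controls, gives the reported T/C.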

Where [1] appears, read: dose: 400.0 mg/kg/injection, schedule: Q01DX009 (ip), vehicle: saline with Tween-80.
Where [2] appears, read: dose: 12.5 mg/kg/injection, schedule: Q01DX009 (ip), vehicle: saline.
The mark [3] stands for this setting: dose: 400.0 mg/kg/injection, schedule: Q01DX009 (ip), vehicle: Klucel (hydroxypropylcellulose) (HPC).
Setting [4] is: dose: 200.0 mg/kg/injection, schedule: Q01DX009 (ip), vehicle: saline with Tween-80.
[5] abbreviates: dose: 100.0 mg/kg/injection, schedule: Q01DX009 (ip), vehicle: saline with Tween-80.
[6] abbreviates: dose: 400.0 mg/kg/injection, schedule: Q04DX003 (ip), vehicle: saline with Tween-80.
[7] abbreviates: dose: 50.0 mg/kg/injection, schedule: Q01DX009 (ip), vehicle: saline.
[8] abbreviates: dose: 100.0 mg/kg/injection, schedule: Q01DX009 (ip), vehicle: saline.
[9] abbreviates: dose: 200.0 mg/kg/injection, schedule: Q01DX009 (ip), vehicle: saline.

This passage reports T/C and survivor count results from PubChem BioAssay AID328 (DTP/NCI, 2004).

The list is a part of this screen's results and no random one: it is rich in T/C values a quarter to a half above the control, in often repeated tests (any T/C) and in doses without a T/C. Other doses and runs of a compound stand elsewhere. T/C is the treated group as % of the vehicle group. Some entries give survivors of the animals treated and no T/C: the source holds a T/C of zero for them, seemingly a mark for toxic or unscored doses. Some doses without a T/C left all or most animals alive at the check, yet need not have been tolerated: the source hardly ever lists a survival T/C far under the control, and the zero likely stands for such cases as well. Survivors were counted at the toxicity check, usually on the fifth day, unless a day is given; later deaths do not show. Schedules are NCI's codes, taken here to give the interval after Q, in days (D) or hours (H), and the number of doses after X. Some entries were tested several times; the values are given in rising order. Where survival is the endpoint, the PubChem record calls one and a half times the control and up active, and a quarter to a half above the control has no call in these data; cut-offs in other NCI protocols can differ. Some T/C values carry the count of animals alive at the toxicity check (mostly the fifth day); where none is given, no animal had died by that day. Starred links: 1 amine or outer side, 2 acyl side, 3 side chain; linkers in the order of their positions; H or OH if unused. Positions of bridges follow the written chain, without caps; N, C: chain ends. Non-standard residues stand in square brackets, D forms with d. Residues, ends and D or L forms follow the SMILES beside them. Chains are numbered I, II in the order given. Actinocin(1to9) = Cc1c2oc3c(C)ccc(C(=O)[*:2])c3nc-2c(C(=O)[*:1])c(N)c1=O; X2 = CC(=O)OC1CC(C)N([*:1])C1C(=O)[*:2]; X1 = CC1CC(=O)C(C(=O)[*:2])N1[*:1]; NMeV = CN[CH](C(=O)O)C(C)C; NMeA = CN[CH](C)C(=O)O; Sar = CNCC(=O)O

Consider `Cc1c(O)ccc(=O)n1O`, for which the T/C was 138 % of control (dose: 80.0 mg/kg/injection, schedule: Q01DX009 (ip), vehicle: saline with Tween-80); 136 % of control (dose: 80.0 mg/kg/injection, schedule: Q01DX009 (ip), vehicle: saline); 135 % of control [5 of 6 alive] (dose: 160.0 mg/kg/injection, schedule: Q01DX009 (ip), vehicle: Klucel (hydroxypropylcellulose) (HPC)). Moreover, the survivor count by setting is: (dose: 320.0 mg/kg/injection, schedule: Q01DX009 (ip), vehicle: Klucel (hydroxypropylcellulose) (HPC)) 5 of 6; under setting [1], 5 of 6.
Consider `COC1(OC)C2CCC1C(Cl)=C2Cl`, for which the survivor count under setting [2] is reported as 6 of 6.
Take `CC(=O)O[C@]1(C(C)=O)CC[C@H]2[C@@H]3C=C(Cl)C4=CC(=O)[C@@H]5C[C@@H]5[C@]4(C)[C@H]3CC[C@@]21C`: the survivor count under setting [3] is on record as 6 of 6.
As to `CC(CC(=N)N)NC(=O)C1CCC(N)=N1` (configuration not stated), the survivor count (dose: 75.0 mg/kg/injection, schedule: Q01DX009 (ip), vehicle: saline) is on record as 6 of 6.
Consider `COc1ccc(-c2cc(=O)c3ccc4cc(OC)c(OC)cc4c3o2)cc1`, for which the survivor count (dose: 25.0 mg/kg/injection, schedule: Q01DX009 (ip), vehicle: distilled water + Tween-80) was 6 of 6.
For the compound `OC(CBr)(c1ccccc1)c1ccccc1`, the survivor count is given as 6 of 6 (dose: 6.25 mg/kg/injection, schedule: Q04DX003 (ip), vehicle: saline with Tween-80) and 6 of 6 (dose: 25.0 mg/kg/injection, schedule: Q04DX003 (ip), vehicle: saline with Tween-80).
Regarding `COC1OCC(N=[N+]=[N-])C2OC12` (configuration not stated), the survivor count (dose: 400.0 mg/kg/injection, schedule: Q01DX009 (ip), vehicle: water) is 2 of 4.
For `CC1CCN(SSc2nc3ccccc3s2)CC1`, under setting [4], the T/C was 125 % of control.
As for `Nc1ccn(CC(=O)c2cccs2)c(=O)n1`, the survivor count by setting is: under setting [5], 2 of 6; under setting [4], 1 of 6; under setting [1], 0 of 6; under setting [6], 5 of 6.
Turning to `O=C1C(CC=C(Cl)Cl)=C(OC2OC(CO)C(O)C(O)C2O)C(=O)c2ccccc21` (configuration not stated), under “dose: 12.5 mg/kg/injection, schedule: Q01DX009 (ip), vehicle: saline with Tween-80”, the T/C was 134 % of control. The survivor count reads like this: (dose: 25.0 mg/kg/injection, schedule: Q01DX009 (ip), vehicle: saline with Tween-80) 6 of 6; (dose: 50.0 mg/kg/injection, schedule: Q01DX009 (ip), vehicle: saline with Tween-80) 1 of 6; under setting [5], 0 of 6; under setting [4], 0 of 6.
On to `CCCCCCOCCN1CCN(CCCN2c3ccccc3Sc3ccc(C(F)(F)F)cc32)CC1`, for which the T/C by setting is: (dose: 12.5 mg/kg/injection, schedule: Q04DX003 (ip), vehicle: saline with Tween-80) 130 % of control; (dose: 50.0 mg/kg/injection, schedule: Q04DX003 (ip), vehicle: saline with Tween-80) 129 % of control.
`CC1(C)N=C(N)N=C(N)N1c1ccc(CNC(=O)Nc2ccc(S(=O)(=O)F)cc2)c(Cl)c1`: the T/C (dose: 59.0 mg/kg/injection, schedule: Q04DX003 (ip), vehicle: saline with Tween-80) was 149 % of control.
With `Clc1cc(N2CC2)nc(N2CC2)n1`, the survivor count by setting is: (dose: 2.5 mg/kg/injection, schedule: Q01DX009 (ip), vehicle: saline) 6 of 6; (dose: 5.0 mg/kg/injection, schedule: Q01DX009 (ip), vehicle: saline) 6 of 6; (dose: 13.0 mg/kg/injection, schedule: Q04DX003 (ip), vehicle: saline) 6 of 6. Further, the T/C (dose: 3.12 mg/kg/injection, schedule: Q01DX001 (ip), vehicle: saline) was 140 % of control.
With `C=CC[N+](C)(CC=C)CC[N+](C)(CC=C)CC=C`, the survivor count (dose: 200.0 mg/kg/injection, schedule: Q04DX003 (ip), vehicle: water) is 0 of 6.
Turning to `O=S1(=O)C=C(c2ccccc2)C(c2ccccc2)=C1`, the T/C runs as follows: (dose: 33.0 mg/kg/injection, schedule: Q04DX003 (ip), vehicle: saline sonified) 136 % of control; (dose: 50.0 mg/kg/injection, schedule: Q04DX003 (ip), vehicle: saline) 127 % of control.
For the compound `Cc1cc(N(CCCl)CCCl)ccc1/C=N\Nc1nncn1N`, the T/C is, setting by setting: (dose: 15.0 mg/kg/injection, schedule: Q01DX009 (ip), vehicle: Klucel (hydroxypropylcellulose) (HPC)) 147 % of control; (dose: 23.0 mg/kg/injection, schedule: Q01DX009 (ip), vehicle: Klucel (hydroxypropylcellulose) (HPC)) 142 % of control; (dose: 65.0 mg/kg/injection, schedule: Q04DX003 (ip), vehicle: Klucel (hydroxypropylcellulose) (HPC)) 136 % of control; (dose: 200.0 mg/kg/injection, schedule: Q04DX003 (ip), vehicle: saline) 140 % of control. Moreover, under setting [3], the survivor count is listed as 2 of 6.
With `O=[N+]([O-])c1cccc(Oc2ncccc2[N+](=O)[O-])c1`, the T/C (dose: 100.0 mg/kg/injection, schedule: Q04DX003 (ip), vehicle: Klucel (hydroxypropylcellulose) (HPC)) was 140 % of control.
Consider `CN(S(=O)(=O)CC(F)(F)F)S(=O)(=O)C(F)(F)F`, for which the survivor count by setting is: under setting [2], 5 of 6; (dose: 25.0 mg/kg/injection, schedule: Q01DX009 (ip), vehicle: saline) 6 of 6; under setting [7], 5 of 6 and 6 of 6; under setting [8], 5 of 6; under setting [9], 4 of 6; (dose: 400.0 mg/kg/injection, schedule: Q01DX009 (ip), vehicle: saline) 5 of 6.
Turning to `CC(C)SC(=O)C[Si](C)(C)C`, the survivor count under setting [6] is given as 2 of 6.
`O=C1c2ccccc2C(=O)C1C(C[N+](=O)[O-])c1ccccc1` (configuration not stated): the survivor count (dose: 100.0 mg/kg/injection, schedule: Q01DX005 (ip), vehicle: saline with Tween-80) is 3 of 5.
With `Cc1ccc(C(=O)C[S+](C)C)c(C)c1`, the survivor count (dose: 115.0 mg/kg/injection, schedule: Q01DX009 (ip), vehicle: saline) is on record as 0 of 6; the survivor count (dose: 170.0 mg/kg/injection, schedule: Q01DX009 (ip), vehicle: saline) is listed as 0 of 6; the survivor count (dose: 225.0 mg/kg/injection, schedule: Q04DX003 (ip), vehicle: saline) was 0 of 6.
In the case of `CC(=O)OC1CC(C)N2C(=O)C(C(C)C)NC(=O)C(NC(=O)c3ccc(C)c4oc5c(C)c(=O)c(N)c(C(=O)NC6C(=O)NC(C(C)C)C(=O)N7C(C)CC(=O)C7C(=O)N(C)CC(=O)N(C)C(C)C(=O)OC6C)c-5nc34)C(C)OC(=O)C(C(C)C)N(C)C(=O)CN(C)C(=O)C12` (configuration not stated) (I: TV[X1][Sar][NMeA] / II: TV[X2][Sar][NMeV]; ester I:1-I:C, II:1-II:C; linker I:N-II:N via Actinocin(1to9); configuration not given here), the T/C reads like this: (dose: 0.2 mg/kg/injection, schedule: Q01DX009 (ip), vehicle: saline + alcohol) 145 % of control; (dose: 0.4 mg/kg/injection, schedule: Q01DX001 (ip), vehicle: saline + alcohol) 125 % of control; (dose: 0.6 mg/kg/injection, schedule: Q04DX003 (ip), vehicle: saline + alcohol) 130 % of control; (dose: 0.8 mg/kg/injection, schedule: Q01DX001 (ip), vehicle: saline + alcohol) 130 % of control; (dose: 1.6 mg/kg/injection, schedule: Q01DX001 (ip), vehicle: saline + alcohol) 140 % of control; (dose: 3.2 mg/kg/injection, schedule: Q01DX001 (ip), vehicle: saline + alcohol) 145 % of control.
As for `CC(C)(C)C1=C[P+](c2ccccc2)(c2ccccc2)C(C(C)(C)C)=C[P+]1(c1ccccc1)c1ccccc1`, the survivor count under setting [7] is reported as 3 of 6.
With `c1cnc2sccc2c1`, under setting [6], the survivor count is 0 of 6.
For `COc1cc(NCCCCCCCNC(C)C)c2nccc(C)c2c1`, the T/C under setting [2] was 125 and 127 % of control. Moreover, the survivor count is reported as 5 of 6 under setting [7], 0 of 6 under setting [8] and 0 of 6 under setting [9].
Turning to `CCOC(=O)C1=C(C)NC(C)=C(C(=O)OCC)C1c1ccc([N+](=O)[O-])s1`, under setting [4], the survivor count is 6 of 6.
